Several values for one entry are separate records, joined by “and”; a condition that tells them apart may be missing. Identical values can stand only once.
These compounds were tested on STHdh cell line model of Huntington's disease (assay: Global (untargeted) lipid profiling by LC-MS, STHdh Q111 vs STHdh Q7 cells). Conditions: ratio of LC-MS feature level in STHdh Q7 vs STHdh Q111 cells; positive mode feature (mode_m/z_RT), mass matched to potential metabolites in the PPMI network.
Format: cell-based, mouse

Compound | Q7/Q111
CCCCCCCC/C=C\CCCCCCCC(=O)OCC(COC(=O)CCCCCCCCCCCCCCCCC)OC(=O)CCCCCCCCCCCCCCCCC (centres unmarked) | 6.574
CCCCCCCC/C=C\CCCCCCCC(=O)OC(COC(=O)CCCCCCCCCCCCCCCCC)COC(=O)CCCCCCCCCCCCCCCCC | 6.574
CCCCCCCCCC=CC=O [2-Dodecenal] | 7.424
CCCCC/C=C(/C=O)CCCC [(E)-2-Butyl-2-octenal] | 7.424
CCCCC/C=C\C/C=C\CCO [(Z,Z)-3,6-Dodecadien-1-ol] | 7.424

Same assay, conditions: ratio of LC-MS metabolite feature level, STHdh Q7 vs STHdh Q111 cells; feature (mode_m/z_RT) matched by mass to potential metabolites; P-value ≦0.01

Compound | Q7/Q111
CC(C)=CCCC(C)C1OCC(C)O1 (centres unmarked) | 0.2707
CCCCCc1oc(CCCCCCC(=O)O)c(C)c1C | 0.1468
O=C1c2c(cc3c(c2O)OCO3)OC(c2ccccc2)C1O (centres unmarked) | 6.631
CC/C=C\C/C=C\C=C\[C@@H](O)CCCCCCCC(=O)O | 0.1468
CCC(O)/C=C/C=C\C/C=C\CCCCCCCC(=O)O (centres unmarked) | 0.1468
CC(C)=CCCC(C)CCOCC=O (centres unmarked) | 0.2707
CCOC(=O)C(O)C(C)CC (racemic) [(+/−)-Ethyl 2-hydroxy-3-methylvalerate] | 0.2033
CC(=O)OCCC(C)CCC=C(C)C (racemic) [(±)-Citronellyl acetate] | 0.2707
CC(=O)OC1CC(C)CCC1C(C)C (racemic) [(±)-Menthyl acetate] | 0.2707
CCCC(O)CC(=O)OCC (racemic) [Ethyl (±)-3-hydroxyhexanoate] | 0.2033
COC(C=C(C)CCC=C(C)C)OC [1,1-Dimethoxy-3,7-dimethyl-2,6-octadiene] | 0.2707
CCCCCCCCCCCCCCCC(O)CC(O)CO (centres unmarked) [1,2,4-Nonadecanetriol] | 0.2648 and 0.2181
C=CC(CCCCC)OC(=O)CCC (centres unmarked) [1-Ethenylhexyl butanoate] | 0.2707
CCC1(O)C2(C)CCC(C2)C1(C)C (centres unmarked) [2-Ethyl-1,3,3-trimethyl-2-norbornanol] | 7.424
CCCC=CCOC(=O)CCCCC [2-Hexenyl hexanoate] | 0.2707
CC/C=C\C/C=C\C/C=C\CCCCCCC(O)C(=O)O (centres unmarked) [2-Hydroxylinolenic acid] | 0.1468
CCCCCC=CCOC(=O)CCC [2-Octenyl butyrate] | 0.2707
C=CCOC(=O)CCCCC1CCCCC1 [2-Propenyl cyclohexanepentanoate] | 0.1814
COc1ccc(-c2oc3cc(O)ccc3c(=O)c2O)cc1O [3,3′,7-Trihydroxy-4′-methoxyflavone] | 6.631
CCCCCCCC1CC(C)OC1=O (centres unmarked) [3-Heptyldihydro-5-methyl-2(3H)-furanone] | 0.2707
CCCCCC(O)CC(=O)O (centres unmarked) [3-Hydroxyoctanoic acid] | 0.2033

Compound | Q7/Q111
CCCC(C(=O)O)C(O)CC (centres unmarked) [3-Hydroxyvalproic acid] | 0.2033
CC(=O)OC(C)C(C)=CC1C(C)=CCCC1(C)C (stereo not drawn) [3-Methyl-alpha-ionyl acetate] | 0.2629
CCCC(CC(C)O)C(=O)O (centres unmarked) [4-Hydroxyvalproic acid] | 0.2033
CC1=C(/C=C/C(C)=C/C=C/C(C)=C/CO)C(C)(C)CCC1O (centres unmarked) [4-hydroxyvitamin A1] | 2.729
CCCCC1(CCCC)CCC(=O)O1 [5,5-Dibutyl-4,5-dihydro-2(3H)furanone] | 0.2707
CCCCCC=CCC=CCCCC(=O)O [5,8-Tetradecadienoic acid] | 0.1814
CCCCCCC=CCCCC(=O)O [5-Dodecenoic acid] | 0.2707
CCCC(CCCO)C(=O)O (centres unmarked) [5-Hydroxyvalproic acid] | 0.2033
C[C@]12CC[C@@H](O)C[C@@H]1CC[C@@H]1[C@@H]2CC[C@]2(C)[C@@H](O)CC[C@@H]12 [5alpha-androstane-3alpha,17beta-diol] | 8.118
Oc1ccc2c(c1)OC[C@@]1(O)c3cc4c(cc3O[C@@H]21)OCO4 [6alpha-Hydroxymaackiain] | 6.631
CCCCCCC1CCCCC(=O)O1 (centres unmarked) [7-Hexyl-2-oxepanone] | 0.2707
CC(O)CCCCCC(=O)O (centres unmarked) [7-Hydroxyoctanoic acid] | 0.2033
CC(C)=CCC[C@@H](C)[C@H]1CC[C@H]2C3=CC=C4C[C@@H](O)CC[C@]4(C)[C@H]3CC[C@]12C [7-dehydrodesmosterol] | 0.1032
CCCCC/C=C\C/C=C\CCCCCC(=O)O [7Z,10Z-Hexadecadienoic acid] | 0.3138
CC/C=C\C/C=C\CC1OC1CCCCCCCC(=O)O (centres unmarked) [9(10)-EpODE] | 0.1468
CC/C=C\C/C=C\C=C\C(O)CCCCCCCC(=O)O (centres unmarked) [9-HOTE] | 0.1468
CCCCC/C=C\C=C\C(=O)CCCCCCCC(=O)O [9-OxoODE] | 0.1468
CCCCCC1C=CC(=O)CCCCCCCCC(=O)O1 (centres unmarked) [10-Oxo-11-octadecen-13-olide] | 0.1468
C=CCCCCCCCCCC(=O)O [11-Dodecenoic acid] | 0.2707
CCCCCCCC/C=C\CCCCCCCCCC(=O)O [11-cis-eicosenoate] | 2.548
CCC=CCC1OC1CC=CCCCCCCCC(=O)O (centres unmarked) [12,13-Epoxy-9,15-octadecadienoic acid] | 0.1468

Compound | Q7/Q111
CC(C=CC1=C(C)CCCC1(C)C)=CC=CC1(C)OC1CO (centres unmarked) [13,14-epoxy-retinol] | 2.729
CC/C=C\CC(O)/C=C/C=C\CCCCCCCC(=O)O (centres unmarked) [13-HOTE] | 0.1468
CCCCCC(=O)/C=C/C=C\CCCCCCCC(=O)O [13-OxoODE] | 0.1468
CC(C=CC=C(C)C(O)CO)=CC=C1C(C)=CCCC1(C)C (centres unmarked) [14-hydroxy-4,14-retro-retinol] | 2.729
CC[C@@H]1O[C@@H]1C/C=C\C/C=C\CCCCCCCC(=O)O [15(16)-EpODE] | 0.1468
CCC1OC1CC=CCC=CCCCCCCCC(=O)O (centres unmarked) [15,16-Epoxy-9,12-octadecadienoic acid] | 0.1468
CCCCCCCCC=CCCCCCCCCCCCCCC(=O)O [15-tetracosenoate] | 4.414
CC(O)/C=C\C/C=C\C/C=C\CCCCCCCC(=O)O (centres unmarked) [17-Hydroxylinolenic acid] | 0.1468
CCCCC/C=C\C=C\O/C=C/CCCCCCC(=O)O [(2′E,4′Z,8E)-Colneleic acid] | 0.1468
CCCCCC[C@@H](O)C(=O)O [(R)-2-Hydroxycaprylic acid] | 0.2033
CCCCC[C@@H](O)CC(=O)O [(R)-3-Hydroxyoctanoic acid] | 0.2033
O=C1CCCCC/C=C\CCCCCCCCO1 [(Z)-7-Hexadecen-1,16-olide] | 0.3138
CC/C=C\CC1OC1C/C=C\CCCCCCCC(=O)O (centres unmarked) [A-12(13)-EpODE] | 0.1468
C=CCOC(=O)CCCCCCCC [Allyl nonanoate] | 0.2707
C=CCCCCCCCCC(=O)OCC=C [Allyl undecylenate] | 0.1814
COc1cc(O)cc2occ(-c3ccc(O)cc3O)c(=O)c12 [Barpisoflavone A] | 6.631
CCCC(=O)OC1CC2CCC1(C)C2(C)C (centres unmarked) [Bornyl butyrate] | 0.1814
COc1cc(O)c2c(=O)c(-c3ccc(O)cc3O)coc2c1 [Cajanin] | 6.631
CCCCCCCC/C=C\CCCCCCCCCCCCCC(=O)N[C@@H](CO)[C@H](O)CCCCCCCCCCCCCCC [Cer(d18:0/24:1(15Z))] | 9.407
CCCCCCCC/C=C\CCCCCCCCCCCCCC(=O)N[C@@H](CO)[C@H](O)/C=C/CCCCCCCCCCCCC [Cer(d18:1/24:1(15Z))] | 7.952
CCCCCCCCCCCCC/C=C/[C@@H](O)[C@H](CO)NC(=O)CCCCCCCCCCCCCCC [Ceramide (d18:1/16:0)] | 9.456

Compound | Q7/Q111
COc1cc(-c2cc(=O)c3c(O)cc(O)cc3o2)ccc1O [Chrysoeriol] | 6.631
CC(=O)OCCC(C)CCC=C(C)C (centres unmarked) [Citronellyl acetate] | 0.2707
O=C1CCCCCCCCCCC1 [Cyclododecanone] | 7.424
O=C1CCCC/C=C/CCCCCCCCCO1 [D6-Ambrettolide] | 0.3138
CCCCC/C=C\C/C=C\C/C=C\CCCCCCC(=O)O [Dihomo-gamma-linolenate] | 0.3387
CCCCCCCC=CC(=O)OCC [Ethyl 2-decenoate] | 0.2707
CCOC(=O)C(O)CC(C)C (centres unmarked) [Ethyl 2-hydroxy-4-methylpentanoate] | 0.2033
CCCCCC=CCCC(=O)OCC [Ethyl 4-decenoate] | 0.2707
CCCCC/C=C\CC/C=C/C(=O)OCC [Ethyl (2E,6Z)-dodecadienoate] | 0.1814
CCCCC/C=C\C/C=C\CCCC(=O)OCC [Ethyl (Z,Z)-5,8-tetradecadienoate] | 0.3138
CCCCCCCCCCCCCC(=O)OC1CCC2(C)C(CCC3(C)C2CCC2C4C(C)C(C)=CCC4(C)C(O)CC23C)C1(C)C (centres unmarked) [Faradiol myristate] | 5.92
CCCCCCCCCCCCC/C=C\C(O)C(CO[C@@H]1O[C@H](CO)[C@H](O)[C@H](O)[C@H]1O)NC(=O)CCCCCCCCCCCCCCC (some centres unmarked) [Galactosylceramide (d18:1/16:0)] | 0.3855
CC1CCCC2(C)CCCCC12O (centres unmarked) [Geosmin] | 7.424
CCC(CC)C(=O)OC/C=C(\C)CCC=C(C)C [Geranyl 2-ethylbutyrate] | 0.3138
CC(C)=CCC/C(C)=C/COC(=O)C(C)C [Geranyl 2-methylpropanoate] | 0.1814
CCCCCC(=O)OC/C=C(\C)CCC=C(C)C [Geranyl hexanoate] | 0.3138
CCCCCCCCCCCCCC=CC(O)C(COC1OC(CO)C(O)C(O)C1O)NC(=O)CCCCCCCCCCCCCCC (centres unmarked) [Glucosylceramide (d18:1/16:0)] | 0.3855
CCCCC/C=C\C/C=C\CCCC(=O)O [Goshuyic acid] | 0.1814
CC=CC(C)C(=O)OCCCCCC (centres unmarked) [Hexyl 2-methyl-3-pentenoate] | 0.2707
C=CCC(C)C(=O)OCCCCCC (centres unmarked) [Hexyl 2-methyl-4-pentenoate] | 0.2707
O=C1CCCCCCC/C=C\CCCCCCO1 [Isoambrettolide] | 0.3138
